{
  "source": "PubChem BioAssay AID1347076",
  "about": "(National Center for Advancing Translational Sciences (NCATS), 2019)",
  "note": "In all, about 400,000 compounds went through this assay and about 13,000 (3.2%) were called active. Inconclusive results, whose numbers are uncertain, are shown with a selection of clear calls. The call rests on the fitted dose curve; in most records, active means well fitted cell-killing curve with a large enough effect; inconclusive means small, poorly fitted or top-dose-only effect, or effect the other way; inactive means flat fitted curve, though single readings scatter. Potencies beside an inconclusive call are fits to weak or partial responses and may not hold up. On the % scale 0 is the no-effect control and ±100 the full control effect; potency means the concentration at half of the fitted maximal effect.",
  "data": [
    {"experiment": "qHTS assay for MDR1-selective chemotherapeutics: Primary screen using the drug-selected MDR subline cells KB-V1; further: nearly all actives have a fitted effect of over 60% in size", "settings": "KB-V1 MDR cells viability, CellTiter-Glo, 72 h; activity change, negative = cytotoxicity: at 46.1 µM (top of the series)", "how_it_was_run": "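qHTS viability screen in drug-selected KB-V1 MDR cells: 72 h compound treatment at 37 degrees C, ATP luminescence end point.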", "values": [
      {"smiles": "Cc1ccc(Sc2c(C(=O)Nc3ccc(F)cc3F)c(C(F)(F)F)nn2C)cc1", "Potency": "inconclusive: 23.1 µM [cytotoxic, partial curve, poor fit]"},
      {"smiles": "O=C(Nc1ccc2oc(Cc3ccc(Cl)cc3)nc2c1)c1cccnc1", "Potency": "inconclusive: 29.1 µM [cytotoxic, single point]"},
      {"smiles": "Cc1ccc(C(=O)NCC(=O)N2CCN(c3cccc(Cl)c3)CC2)s1", "activity change, negative = cytotoxicity": "inactive: -17.1%"},
      {"smiles": "O=C(c1ccc(C(F)(F)F)cc1)N1CCC(=O)N([C@H](COCc2ccc(Cl)cc2)Cc2ccccc2)CC1", "Potency": "inconclusive: 18.4 µM [cytotoxic, partial curve]"},
      {"smiles": "CCCCC(=O)N1CCN(c2nc(-c3ccc(F)cc3)cs2)CC1", "Potency": "inconclusive: 29.1 µM [cytotoxic, single point]"},
      {"smiles": "Cc1cc(Br)cn2c(Cc3ccsc3)c(-c3cccc(Br)c3)nc12", "Potency": "inconclusive: 1.3 µM [rising, full curve, poor fit]"},
      {"smiles": "CCc1ccc(Nc2n[n+](-c3ccccc3)c(-c3ccc(OCc4ccccc4)cc3)s2)cc1", "activity change, negative = cytotoxicity": "inactive: -3.7%"},
      {"smiles": "COc1ccc(NS(=O)(=O)c2cc(NC(=O)COc3ccccc3F)ccc2OC)cc1", "Potency": "inconclusive: 16.4 µM [cytotoxic, single point]"},
      {"smiles": "CCOc1ccc(NC(=S)N(CCc2c(C)[nH]c3ccccc23)Cc2cccnc2)cc1", "Potency": "inconclusive: 29.1 µM [rising, single point]"},
      {"smiles": "COCCn1c(COc2ccc(OC)cc2)nc2ccccc21", "Potency": "active: 8.2 µM"},
      {"smiles": "COc1ccc(-c2noc(C3CCCN(C(=O)c4ccccc4C)C3)n2)cc1", "note": "(configuration not stated)", "Potency": "inconclusive: 13 µM [cytotoxic, partial curve]"},
      {"smiles": "Cc1ccc(S(=O)(=O)NC(=O)C2(C)CCN2C(=O)Cc2ccc(C(C)(C)C)cc2)cc1", "note": "(configuration not stated)", "activity change, negative = cytotoxicity": "inactive: -4.56%"},
      {"smiles": "CCOC(=O)c1ccc(NC(=O)NCc2c(C)nn(CC)c2C)cc1", "Potency": "inconclusive: 18.4 µM [cytotoxic, single point]"},
      {"smiles": "O=C(CN1CCN(c2ccccc2F)CC1)NCc1ccc(Cl)cc1", "activity change, negative = cytotoxicity": "inactive: -3.53%"},
      {"smiles": "CC1=Nc2cc(C(=O)NC3CCCC3)ccc2Sc2ccc(C)cc21", "Potency": "active: 1.3 µM"},
      {"smiles": "CCOc1ccc(S(=O)(=O)NCCC(=O)NCc2ccncc2)cc1", "Potency": "inconclusive: 4.11 µM [rising, partial curve, poor fit]"},
      {"smiles": "COc1cccc(OCC(=O)Nc2cc(Cl)ccc2Oc2ccccc2)c1", "activity change, negative = cytotoxicity": "inactive: -0.559%"},
      {"smiles": "CCOC(=O)N1CCN(C(=O)C[C@@H]2C[C@@]3(C(=O)OCC)CCC=C3N(CCC3=CCCCC3)C2=O)CC1", "Potency": "inconclusive: 9.2 µM [cytotoxic, partial curve, poor fit]"},
      {"smiles": "COc1cc(CNC(=O)c2cc(-c3ccc(F)cc3OC)n[nH]2)cc(OC)c1", "activity change, negative = cytotoxicity": "inactive: -1.95%"},
      {"smiles": "CC1=CC2(O)OCCN(CCO)C2=CC1=O", "note": "(configuration not stated)", "activity change, negative = cytotoxicity": "inactive: 7.42%"},
      {"smiles": "O=C(c1cc2cc(F)ccc2[nH]1)N1CCCC(Nc2ccc(F)cc2)C1", "note": "(configuration not stated)", "activity change, negative = cytotoxicity": "inactive: -25.9%"},
      {"smiles": "COc1ccc(NC(=O)Cn2c(C)cc3ccccc3c2=O)c(OC)c1", "Potency": "inconclusive: 5.8 µM [rising, partial curve, poor fit]"},
      {"smiles": "c1ccc(N2CCN(c3cnc4ccccc4n3)CC2)cc1", "Potency": "inconclusive: 29.1 µM [cytotoxic, single point]"},
      {"smiles": "CC(C)Cn1c(-c2csc3ccccc23)n[nH]c1=S", "Potency": "active: 16.4 µM"},
      {"smiles": "O=C(Nc1ccc(N2CCC(c3ccccc3)C2)c(C(=O)O)c1)c1ccc(Cl)cc1", "note": "(configuration not stated)", "activity change, negative = cytotoxicity": "inactive: 13.3%"},
      {"smiles": "O=C(CSc1ncccn1)NCc1ccc(Cl)cc1", "Potency": "inconclusive: 29.1 µM [cytotoxic, single point]"},
      {"smiles": "Cc1nn(-c2ccc(F)cc2)c(-n2cccc2)c1C(=O)NCCCN1CCN(c2ccccc2F)CC1", "Potency": "inconclusive: 18.4 µM [cytotoxic, partial curve]"},
      {"smiles": "Cc1ccc(NC2CCCN(C(=O)CCCN3CCCCC3=O)C2)cc1C", "note": "(configuration not stated)", "Potency": "inconclusive: 9.2 µM [cytotoxic, partial curve]"},
      {"smiles": "COc1ccc(OC)c(C2(O)CSC(=Nc3cccnc3)N2Cc2ccco2)c1", "note": "(configuration not stated)", "Potency": "inconclusive: 23.1 µM [cytotoxic, partial curve, poor fit]"},
      {"smiles": "O=C(O)CCc1ccc(-c2cccs2)n1NC(=O)c1ccccc1Br", "Potency": "inconclusive: 16.4 µM [cytotoxic, single point]"},
      {"smiles": "Nc1nnc(SCC(=O)OCC(=O)NC2CCCCC2)s1", "Potency": "inconclusive: 20.6 µM [rising, partial curve, poor fit]"},
      {"smiles": "Cc1cc(NCCCO)n2c(nc3ccccc32)c1C#N", "Potency": "inconclusive: 29.1 µM [rising, single point]"},
      {"smiles": "CC(c1ccccc1)N1C(=O)/C(=C/c2ccncc2)SC1=S", "note": "(configuration not stated)", "Potency": "inconclusive: 18.4 µM [cytotoxic, single point]"},
      {"smiles": "CC(C)Cn1c(N)c(C(=O)CSc2ncccn2)c(=O)n(C)c1=O", "Potency": "inconclusive: 25.9 µM [cytotoxic, single point]"},
      {"smiles": "C/C(=N\\N1CCN(c2ccccc2)CC1)c1ccc(O)cc1", "activity change, negative = cytotoxicity": "inactive: -5.15%"},
      {"smiles": "CC(=O)c1ccc(NC(=O)CC2Nc3cccc4cccc(c34)NC2=O)cc1", "note": "(configuration not stated)", "Potency": "inconclusive: 0.0164 µM [rising, full curve]"},
      {"smiles": "O=C(NC(c1ccccc1)c1ccc2ccccc2n1)C1CCN(Cc2ccc(Cl)c(Cl)c2)CC1", "note": "(configuration not stated)", "Potency": "inconclusive: 29.1 µM [cytotoxic, single point]"},
      {"smiles": "Cc1cc(C)c(NC(=O)CN2CCN(S(=O)(=O)c3ccc4c(c3)OCCO4)CC2)c(C)c1", "activity change, negative = cytotoxicity": "inactive: -0.0541%"},
      {"smiles": "Cc1ccc(S(=O)(=O)N(C)C)cc1NC(=O)c1ccc(OC(F)(F)F)cc1", "activity change, negative = cytotoxicity": "inactive: 11.7%"},
      {"smiles": "COc1ccccc1CNc1nc2ccccc2c2nc(-c3cccnc3)nn12", "activity change, negative = cytotoxicity": "inactive: 4.14%"},
      {"smiles": "C=CCn1c(SCc2nc3cc(C(=O)OC)ccc3c(=O)[nH]2)nc2sc(CC)cc2c1=O", "Potency": "active: 5.17 µM"},
      {"smiles": "CCCN(CCC)S(=O)(=O)c1ccc(C(=O)Nc2nc(-c3ccccc3)c(C(=O)OCC)s2)cc1", "Potency": "inconclusive: 7.31 µM [cytotoxic, partial curve, poor fit]"},
      {"smiles": "O=C1OC(CO)CN1Cc1ccccc1", "note": "(configuration not stated)", "Potency": "inconclusive: 16.4 µM [rising, single point]"},
      {"smiles": "O=C(CCn1c(=O)oc2ccccc21)Nc1nccs1", "activity change, negative = cytotoxicity": "inactive: -2.04%"},
      {"smiles": "Cc1cc(C(=O)NNC(=S)NCc2ccco2)n(C)n1", "activity change, negative = cytotoxicity": "inactive: 10.7%"},
      {"smiles": "Cc1c(NC(=O)c2cc(-c3ccc(O)cc3)on2)c(=O)n(-c2ccccc2)n1C", "Potency": "inconclusive: 20.6 µM [rising, partial curve, poor fit]"},
      {"smiles": "Cc1noc(C)c1NC(=O)N(C)C[C@@H]1Oc2cc(Br)ccc2S(=O)(=O)N([C@H](C)CO)C[C@@H]1C", "Potency": "inconclusive: 9.2 µM [rising, partial curve]"},
      {"smiles": "N#Cc1nc(-c2ccco2)oc1N1CCN(c2ccccc2)CC1", "activity change, negative = cytotoxicity": "inactive: -11.4%"},
      {"smiles": "NNC(=O)CN1C(c2cccc(Cl)c2)=Nc2ccc(Br)cc2C1c1ccccc1", "note": "(configuration not stated)", "activity change, negative = cytotoxicity": "inactive: -3.67%"},
      {"smiles": "COc1ccc(OC)c(NC(=O)c2ccccc2SC)c1", "Potency": "active: 18.4 µM"},
      {"smiles": "CCCCn1c(N)c(N(Cc2ccccc2)C(=O)COc2ccccc2F)c(=O)[nH]c1=O", "Potency": "inconclusive: 23.1 µM [rising, single point]"},
      {"smiles": "C[C@H]1NS(=O)(=O)c2cc(Cl)ccc2O[C@@H]1c1ccccc1", "Potency": "inconclusive: 16.4 µM [rising, single point]"},
      {"smiles": "Cc1c(C2(O)CCCCC2)[nH]c2ccc(C(F)(F)F)cc12", "Potency": "inconclusive: 29.1 µM [cytotoxic, single point]"},
      {"smiles": "CCc1ccc(CNc2ccc(N3CCN(C(C)=O)CC3)cc2)cc1", "Potency": "inconclusive: 18.4 µM [cytotoxic, single point]"},
      {"smiles": "COc1cc(CNCc2cccc(OC)c2OC)cc(OC)c1", "activity change, negative = cytotoxicity": "inconclusive: -38.3% [cytotoxic]"},
      {"smiles": "COC(=O)CCCC1=CC2=CC(=O)C(C)(OC(=O)c3cccs3)C(=O)C2=CN1CCCCO", "note": "(configuration not stated)", "activity change, negative = cytotoxicity": "inconclusive: 30.2%"},
      {"smiles": "Cc1nn(CC(C)C)c(Cl)c1C(=O)N(C)CC(=O)Nc1c(Cl)cccc1Cl", "Potency": "inconclusive: 25.9 µM [cytotoxic, partial curve, poor fit]"},
      {"smiles": "COc1cc(-c2ccc3ncnc(NCc4nc(C)cs4)c3c2)cc(OC)c1OC", "activity change, negative = cytotoxicity": "inactive: -5.62%"},
      {"smiles": "CC1(C)C(=O)Nc2ccccc2N1C(=O)COC(=O)c1cc(Cl)cc(Cl)c1", "activity change, negative = cytotoxicity": "inactive: -25.1%"},
      {"smiles": "Cc1[nH]c2ccccc2c1CCNC(=O)CCC(=O)c1ccccc1", "activity change, negative = cytotoxicity": "inactive: 16.9%"},
      {"smiles": "N#CC1=C(N)OC2=C(CCc3ccccc32)C1c1ccccc1Cl", "note": "(configuration not stated)", "Potency": "active: 4.61 µM"},
      {"smiles": "COC(=O)c1ccc2c(c1O)C(=O)c1ccccc1C2=O", "Potency": "inconclusive: 29.1 µM [cytotoxic, single point]"},
      {"smiles": "Nc1ncnc2c1ncn2[C@@H]1O[C@H](C(=O)N(CCC2=CCCCC2)CC2CC2)[C@@H](O)[C@H]1O", "activity change, negative = cytotoxicity": "inactive: 14.3%"},
      {"smiles": "COc1ccc(CCNC(=O)CC(C)(C)CC2=NS(=O)(=O)c3ccccc3N2)cc1OC", "activity change, negative = cytotoxicity": "inactive: 2.09%"},
      {"smiles": "Cc1nnc(SCC(=O)N(CC(C)C)C2CCS(=O)(=O)C2)n1N", "note": "(configuration not stated)", "Potency": "inconclusive: 10.3 µM [rising, single point]"},
      {"smiles": "COCCN1C(=O)N(c2ccc(Cl)cc2)C(=O)C1CC(=O)Nc1cc(OC)cc(OC)c1", "note": "(configuration not stated)", "Potency": "inconclusive: 1.03 µM [rising, full curve]"},
      {"smiles": "COc1cc(-c2ccc(NC(=O)c3ccc(C)cc3)c(OC)c2)ccc1NC(=O)c1ccc(C)cc1", "activity change, negative = cytotoxicity": "inactive: -8.08%"},
      {"smiles": "CCCc1ccc(C(=O)NNc2ccccc2F)cc1", "activity change, negative = cytotoxicity": "inactive: 2.16%"},
      {"smiles": "COc1ccc(NC(=O)/C(C#N)=C/c2ccc(Sc3nncn3C)c([N+](=O)[O-])c2)cc1", "activity change, negative = cytotoxicity": "inactive: -11.6%"},
      {"smiles": "CCCOc1nc2c(c(=O)n(C)c(=O)n2C)n1Cc1cccc2ccccc12", "Potency": "active: 5.8 µM"},
      {"smiles": "COc1ccc(CNC(=O)C2CCN(C(=O)c3ccc(-n4ccc5ccccc54)s3)CC2)cc1", "Potency": "inconclusive: 18.4 µM [cytotoxic, single point]"},
      {"smiles": "COc1ccc(-c2[nH]ncc2N=Nc2ccccc2)cc1", "Potency": "inconclusive: 23.1 µM [cytotoxic, single point]"}
    ]}
  ]
}
